Laboratory results published in article doi:10.1101/2025.11.22.689956.
No constants are given. Whether binding was seen depends on the method and setting. Sequences can lack the tags named with a protein.

By UniProt entry, the sequences of proteins in these tests, tags left out.
UniProt Q0INY7: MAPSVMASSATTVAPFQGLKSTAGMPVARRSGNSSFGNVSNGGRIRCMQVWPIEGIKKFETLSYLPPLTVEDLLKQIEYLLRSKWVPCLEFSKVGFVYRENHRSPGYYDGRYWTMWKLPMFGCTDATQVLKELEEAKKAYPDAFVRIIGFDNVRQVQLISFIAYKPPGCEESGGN

Target: precursor RbcS (RbcS3), yeast two-hybrid fusion (rice) (UniProt Q0INY7)
Experiment: two-hybrid

B1: MPK3 fused to the GAL4 activation domain (enzyme, UniProt Q10N20 1-369)
chain: MDGAPVAEFRPTMTHGGRYLLYDIFGNKFEVTNKYQPPIMPIGRGAYGIVCSVMNFETREMVAIKKIANAFNNDMDAKRTLREIKLLRHLDHENIIGIRDVIPPPIPQAFNDVYIATELMDTDLHHIIRSNQELSEEHCQYFLYQILRGLKYIHSANVIHRDLKPSNLLLNANCDLKICDFGLARPSSESDMMTEYVVTRWYRAPELLLNSTDYSAAIDVWSVGCIFMELINRQPLFPGRDHMHQMRLITEVIGTPTDDELGFIRNEDARKYMRHLPQYPRRTFASMFPRVQPAALDLIERMLTFNPLQRITVEEALDHPYLERLHDIADEPICLEPFSFDFEQKALNEDQMKQLIFNEAIEMNPNIRY
  binding: no binding
